Measured values: PMC7352346, “Erdafitinib Resensitizes ABCB1-Overexpressing Multidrug-Resistant Cancer Cells to Cytotoxic Anticancer Drugs” (Cancers, 2020)
pEC50: −log10 of the molar value.

Chains of the proteins cited; added tags and fusions are not shown.
UniProt P08183, whole entry: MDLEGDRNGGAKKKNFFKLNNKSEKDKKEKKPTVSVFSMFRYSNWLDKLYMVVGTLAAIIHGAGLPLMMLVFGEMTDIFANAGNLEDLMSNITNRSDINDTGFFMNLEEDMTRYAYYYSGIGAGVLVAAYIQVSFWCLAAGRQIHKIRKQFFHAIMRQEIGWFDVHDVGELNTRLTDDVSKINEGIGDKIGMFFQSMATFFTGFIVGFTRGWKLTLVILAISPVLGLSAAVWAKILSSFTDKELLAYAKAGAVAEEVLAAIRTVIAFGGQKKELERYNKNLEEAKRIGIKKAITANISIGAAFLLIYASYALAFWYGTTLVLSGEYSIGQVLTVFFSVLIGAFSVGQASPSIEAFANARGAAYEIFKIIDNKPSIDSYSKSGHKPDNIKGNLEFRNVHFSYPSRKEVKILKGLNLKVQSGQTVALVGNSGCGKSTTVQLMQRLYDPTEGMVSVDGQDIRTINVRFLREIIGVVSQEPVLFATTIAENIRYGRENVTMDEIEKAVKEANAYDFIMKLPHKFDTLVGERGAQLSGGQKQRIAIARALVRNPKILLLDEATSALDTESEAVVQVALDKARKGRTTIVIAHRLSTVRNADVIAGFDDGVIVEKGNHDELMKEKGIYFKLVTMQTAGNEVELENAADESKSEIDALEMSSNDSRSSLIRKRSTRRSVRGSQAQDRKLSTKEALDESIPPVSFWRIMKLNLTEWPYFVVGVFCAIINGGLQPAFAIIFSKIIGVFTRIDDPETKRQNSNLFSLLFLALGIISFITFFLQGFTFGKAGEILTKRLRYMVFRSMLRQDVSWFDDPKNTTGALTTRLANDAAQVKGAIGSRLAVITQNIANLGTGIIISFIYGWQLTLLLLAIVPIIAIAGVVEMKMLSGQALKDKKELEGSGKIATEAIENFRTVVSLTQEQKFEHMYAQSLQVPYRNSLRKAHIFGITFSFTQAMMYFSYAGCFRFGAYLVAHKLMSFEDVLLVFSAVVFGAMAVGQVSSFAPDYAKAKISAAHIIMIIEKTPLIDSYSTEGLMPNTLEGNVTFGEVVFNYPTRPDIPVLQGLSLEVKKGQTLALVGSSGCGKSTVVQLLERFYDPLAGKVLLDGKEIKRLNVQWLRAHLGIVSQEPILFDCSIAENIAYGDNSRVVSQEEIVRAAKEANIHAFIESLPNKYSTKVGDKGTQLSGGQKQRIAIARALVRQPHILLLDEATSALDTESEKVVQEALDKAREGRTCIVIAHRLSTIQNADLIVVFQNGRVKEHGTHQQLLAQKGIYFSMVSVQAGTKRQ

Biological target: ABCB1 (MDR1, P-glycoprotein) (Homo sapiens, UniProt P08183)
Test: biochemical

Structure (SMILES): COc1cc(OC)cc(N(CCNC(C)C)c2ccc3ncc(-c4cnn(C)c4)nc3c2)c1 [erdafitinib]
- pEC50: ~6.46
